Results as given in publication PMC7592398.
These are yes or no findings as the source states them, for the method shown. In cells and extracts the contact can be indirect. Some binding calls cover weakened binding; strength is not graded here. Tags and fused reporters may be left off the sequences shown.

What was measured:
[1] = molecular target: T1, FLAG-tagged MKS1 1-353 (human) (UniProt Q9NXB0); assay: co-IP; transfected HEK293T cells; lysis in 20 mM Tris-HCl pH 7.5, 150 mM NaCl, 0.5 mM EDTA, 0.5% Triton X-100; FLAG-MKS1 variants captured on FLAG M2 beads 2 h at 4°C, eluted with 3xFLAG peptide; blot with anti-FLAG and anti-HA
T1 sequence: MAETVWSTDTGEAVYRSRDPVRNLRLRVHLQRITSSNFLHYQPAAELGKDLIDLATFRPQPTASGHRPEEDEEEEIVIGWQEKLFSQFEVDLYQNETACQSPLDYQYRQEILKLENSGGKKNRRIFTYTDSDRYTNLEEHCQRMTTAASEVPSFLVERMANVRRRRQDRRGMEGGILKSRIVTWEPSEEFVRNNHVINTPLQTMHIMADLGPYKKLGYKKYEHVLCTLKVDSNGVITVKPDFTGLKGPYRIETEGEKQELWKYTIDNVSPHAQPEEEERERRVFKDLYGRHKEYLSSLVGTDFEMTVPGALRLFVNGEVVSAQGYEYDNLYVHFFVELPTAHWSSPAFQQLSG

[2] = molecular target: T2, FLAG-tagged wild-type MKS1 (human) (UniProt Q9NXB0); assay: as above
T2 sequence: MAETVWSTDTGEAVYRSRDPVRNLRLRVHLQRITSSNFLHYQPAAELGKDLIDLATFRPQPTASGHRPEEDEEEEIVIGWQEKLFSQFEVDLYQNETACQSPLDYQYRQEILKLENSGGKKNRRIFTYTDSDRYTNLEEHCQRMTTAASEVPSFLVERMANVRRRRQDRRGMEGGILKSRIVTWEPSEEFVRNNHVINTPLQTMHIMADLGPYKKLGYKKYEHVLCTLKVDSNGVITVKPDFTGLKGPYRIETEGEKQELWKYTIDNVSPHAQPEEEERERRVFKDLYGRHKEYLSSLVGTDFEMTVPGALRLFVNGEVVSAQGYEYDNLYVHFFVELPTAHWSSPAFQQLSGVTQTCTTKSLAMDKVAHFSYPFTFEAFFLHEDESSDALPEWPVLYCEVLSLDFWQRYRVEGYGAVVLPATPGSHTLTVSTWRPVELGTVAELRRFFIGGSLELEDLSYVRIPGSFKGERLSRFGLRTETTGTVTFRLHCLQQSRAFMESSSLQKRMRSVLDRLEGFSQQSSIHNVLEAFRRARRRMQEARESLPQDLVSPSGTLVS

binding [1]: no binding | binding [2]: binds
B1: HA-tagged B9D2 (protein, UniProt Q9BPU9 1-175)
chain: MAEVHVIGQIIGASGFSESSLFCKWGIHTGAAWKLLSGVREGQTQVDTPQIGDMAYWSHPIDLHFATKGLQGWPRLHFQVWSQDSFGRCQLAGYGFCHVPSSPGTHQLACPTWRPLGSWREQLARAFVGGGPQLLHGDTIYSGADRYRLHTAAGGTVHLEIGLLLRNFDRYGVEC
